This is an account of results in publication PMC9173638 (PLoS Genetics, 2022).

The data set relates to ComR. The experiment in a line: EMSA. The settings on record: sXIP, twofold dilutions up to 6 uM, ComR 3 uM; 20 mM Tris-HCl pH 8.0, 150 mM NaCl, 1 mM EDTA, 10% glycerol, 1 mg/mL BSA, 37 C 10 min; 20 ng probe in 20 uL; native 4-20% gel in Tris-MOPS pH 7.7; recombinant protein; protein details: C-terminal StrepTag; label: Cy3 at 5' end of strand 1. (In general: In EMSA bound probe runs differently from free probe, usually more slowly.)

Construct, isoform or probe ends are uncertain for at least one entry. At least one verdict was read from the data and is not stated in words by the source.

On to “TTTTATAGTGACATATATGTCGCTATTTTA (double strand) [PcomX ComR box 30-bp probe]”, for which the binding result is recorded as “binds”.
